Results from patent publication US9849083B2, “Sublingual administration of statins” (LondonPharma Ltd., priority 2011, dated 2017).
At least one compound was matched to its structure with a doubt left.

Test: Chemical stability / compatibility of the statin in formulations
Assay type: physicochemical

CC[C@H](C)C(=O)O[C@H]1C[C@H](O)C=C2C=C[C@H](C)[C@H](CC[C@@H](O)C[C@@H](O)CC(=O)O)[C@H]21 [Pravastatin, pravastatin]
pH at which hydrolysis occurs: less than 8
